# Source: publication PMC3852783
# Chains of the proteins cited; added tags and fusions are not shown. Lines headed by an entry give the natural chain unless they say otherwise; changes in a name come on top.
# UniProt P30874: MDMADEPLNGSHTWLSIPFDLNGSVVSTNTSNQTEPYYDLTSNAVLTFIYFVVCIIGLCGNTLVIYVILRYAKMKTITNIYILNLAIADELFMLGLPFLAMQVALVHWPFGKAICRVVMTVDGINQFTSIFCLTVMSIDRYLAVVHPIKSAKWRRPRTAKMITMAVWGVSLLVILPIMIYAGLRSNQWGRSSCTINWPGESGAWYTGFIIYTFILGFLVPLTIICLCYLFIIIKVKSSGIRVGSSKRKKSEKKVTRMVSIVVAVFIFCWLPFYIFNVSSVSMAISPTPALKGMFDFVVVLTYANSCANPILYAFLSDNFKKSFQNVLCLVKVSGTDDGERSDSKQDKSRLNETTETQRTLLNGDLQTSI
# UniProt P41145: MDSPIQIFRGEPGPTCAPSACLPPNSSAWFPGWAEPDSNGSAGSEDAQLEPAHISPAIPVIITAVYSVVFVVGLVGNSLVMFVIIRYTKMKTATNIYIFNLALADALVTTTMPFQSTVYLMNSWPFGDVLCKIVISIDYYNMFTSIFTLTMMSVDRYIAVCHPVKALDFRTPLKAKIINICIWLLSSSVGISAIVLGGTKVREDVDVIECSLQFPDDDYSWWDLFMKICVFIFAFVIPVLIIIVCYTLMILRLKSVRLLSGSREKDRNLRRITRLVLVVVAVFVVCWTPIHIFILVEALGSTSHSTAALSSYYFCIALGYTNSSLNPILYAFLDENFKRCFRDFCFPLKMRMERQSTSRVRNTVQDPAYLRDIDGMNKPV
# UniProt P35372: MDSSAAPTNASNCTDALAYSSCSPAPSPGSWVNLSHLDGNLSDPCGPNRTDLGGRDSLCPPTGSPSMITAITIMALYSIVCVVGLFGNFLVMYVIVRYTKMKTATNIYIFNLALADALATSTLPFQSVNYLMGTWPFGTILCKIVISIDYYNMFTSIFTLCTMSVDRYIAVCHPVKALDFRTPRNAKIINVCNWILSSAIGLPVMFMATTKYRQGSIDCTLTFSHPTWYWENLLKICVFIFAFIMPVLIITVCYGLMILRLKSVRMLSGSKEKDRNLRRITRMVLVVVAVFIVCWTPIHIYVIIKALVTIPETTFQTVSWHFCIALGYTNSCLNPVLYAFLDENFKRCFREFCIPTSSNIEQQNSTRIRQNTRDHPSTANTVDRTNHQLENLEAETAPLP
# Results are given in words; binding and its absence hold for the method and conditions named. In cells and extracts the contact can be indirect. Some results given as binding are weak or reduced against the parent protein; the word gives no strength.
# Experiments:
# [1] = target: somatostatin receptor subtype 2 (human (endogenous in MCF-7, MDA-MB231 and T47D)) (UniProt P30874); test: condition: only MCF-7 cells untreated or treated with U50488HCl alone; co-IP; MCF-7 cells, untreated control or treated with U50488HCl (1 μM) alone, 15 min at 37°C; membrane protein in RIPA buffer; anti-SSTR2 immunoprecipitate blotted for κOR
# [2] = target: somatostatin receptor subtype 2 (human (endogenous in MCF-7, MDA-MB231 and T47D)) (UniProt P30874); test: co-IP; MDA-MB231 cells, control or treated 15 min at 37°C with L-779,976 (10 nM), DAMGO, Deltorphin-II or U50488HCl (1 μM) alone or in combination; 200 μg membrane protein in RIPA buffer, pH 8.0; anti-SSTR2 immunoprecipitate on protein A/G-agarose, 4°C, blotted for ORs
# [3] = target: somatostatin receptor subtype 2 (human (endogenous in MCF-7, MDA-MB231 and T47D)) (UniProt P30874); test: co-IP; T47D cells, control or treated 15 min at 37°C with L-779,976 (10 nM), DAMGO, Deltorphin-II or U50488HCl (1 μM) alone or in combination; 200 μg membrane protein in RIPA buffer, pH 8.0; anti-SSTR2 immunoprecipitate on protein A/G-agarose, 4°C, blotted for ORs
# [4] = target: somatostatin receptor subtype 2 (human (endogenous in MCF-7, MDA-MB231 and T47D)) (UniProt P30874); test: co-IP; MCF-7 cells, control or treated 15 min at 37°C with L-779,976 (10 nM), DAMGO, Deltorphin-II or U50488HCl (1 μM) alone or in combination; 200 μg membrane protein in RIPA buffer, pH 8.0; anti-SSTR2 immunoprecipitate on protein A/G-agarose, 4°C, blotted for ORs
# [5] = target: somatostatin receptor subtype 2 (human (endogenous in MCF-7, MDA-MB231 and T47D)) (UniProt P30874); test: condition: only MDA-MB231 cells treated with agonists; co-IP; MDA-MB231 cells treated with agonists (L-779,976 10 nM, Deltorphin-II 1 μM), 15 min at 37°C; membrane protein in RIPA buffer; anti-SSTR2 immunoprecipitate blotted for δOR
# [6] = target: somatostatin receptor subtype 2 (human (endogenous in MCF-7, MDA-MB231 and T47D)) (UniProt P30874); test: condition: only T47D cells in basal state or treated with L-779,976 alone; co-IP; T47D cells, basal or treated with L-779,976 (10 nM) alone, 15 min at 37°C; membrane protein in RIPA buffer; anti-SSTR2 immunoprecipitate blotted for δOR
# [7] = target: somatostatin receptor subtype 2 (human (endogenous in MCF-7, MDA-MB231 and T47D)) (UniProt P30874); test: co-IP; T47D cells, untreated control; membrane protein in RIPA buffer; anti-SSTR2 immunoprecipitate blotted for μOR
# [8] = target: somatostatin receptor subtype 2 (human (endogenous in MCF-7, MDA-MB231 and T47D)) (UniProt P30874); test: condition: only MDA-MB231 cells treated with DAMGO alone or in combination with L-779,976; co-IP; MDA-MB231 cells treated with DAMGO (1 μM) alone or in combination with L-779,976 (10 nM), 15 min at 37°C; membrane protein in RIPA buffer; anti-SSTR2 immunoprecipitate blotted for μOR
Substance,binding [1],binding [2],binding [3],binding [4],binding [5],binding [6],binding [7],binding [8]
κ opioid receptor (from UniProt P41145 1-380),no binding,binds,binds,binds,,,,
δ opioid receptor (from UniProt P41143 1-372),,binds,binds,binds,no binding,no binding,,
μ opioid receptor (from UniProt P35372 1-400),,binds weakly,binds,binds,,,no binding (condition: untreated control T47D cells),no binding
